Experimental data published in PubChem BioAssay AID1347076 (National Center for Advancing Translational Sciences (NCATS), 2019).
Among all 400,000 compounds or so, about 13,000 (3.2%) were called active. The inconclusive results got no clear call from the source; some entries with a clear call stand among them for comparison. Calls follow the shape of the dose curve; as a rule, active = well fitted cell-killing curve with a large enough effect; inconclusive = small, poorly fitted or top-dose-only effect, or effect the other way; inactive = flat fitted curve, though single readings scatter. Where the call is inconclusive, the potency comes from a doubtful curve fit. A structure can be active in one record and inactive in another.

experiment: qHTS assay for MDR1-selective chemotherapeutics: Primary screen using the drug-selected MDR subline cells KB-V1; conditions: KB-V1 MDR cells viability, CellTiter-Glo, 72 h; activity change, negative = cytotoxicity: at 46.1 µM (top of the series); also: nearly all actives have a fitted effect of over 60% in size
Procedure, shortened: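 KB-V1, DMEM (no phenol red) + 10% FBS; cpd pin-transferred, titration series; 72 h, 37 degrees C; CellTiter-Glo, luminescence. Data normalized, curve-fit.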
% is scaled to controls: 0 for no effect and ±100 for the full control effect; potency is read from the fitted curve at half-maximal effect.

Row | Compound | Potency | activity change, negative = cytotoxicity
1 | COc1cc(S(=O)(=O)N2CCOCC2)ccc1NC(=O)COC(=O)CC12CC3CC(CC(C3)C1)C2 | inconclusive: 25.9 µM [cytotoxic, single point] | –
2 | Cc1cccc(-n2c(-c3csc(C)c3C)n[nH]c2=S)c1 | inconclusive: 20.6 µM [cytotoxic, single point] | –
3 | Nn1cc(-c2ccccc2)nc1SCC(=O)N1CCN(S(=O)(=O)c2ccc(Cl)cc2)CC1 | inconclusive: 20.6 µM [cytotoxic, single point] | –
4 | CCOc1ccc(CCNS(=O)(=O)c2cnc[nH]2)cc1OCC | – | inactive: 3.16%
5 | COC(=O)c1ccc(-c2ccc(/C=N/N3C(=O)C4C5C=CC(CC5)C4C3=O)o2)cc1 (centres undefined) | inconclusive: 29.1 µM [cytotoxic, single point] | –
6 | Cc1nnc(SCC(=O)N2CCN(C(=O)c3ccco3)CC2)n1-c1ccccc1 | inconclusive: 29.1 µM [rising, single point] | –
7 | COc1ccc(OCC(=O)NC(=S)N2CCCc3ccccc32)cc1 | inconclusive: 23.1 µM [cytotoxic, partial curve, poor fit] | –
8 | CN(C(=O)c1sc2nc(N3CCOCC3)c3c(c2c1N)CCCC3)c1ccccc1 | – | inactive: -3.91%
9 | CCOC(=O)c1c(CSCc2ccccc2)oc2ccc(O)c(CN(C)C)c12 | inconclusive: 14.6 µM [cytotoxic, single point] | –
10 | COc1cc(O)c(C(CC(=O)N2CCCCC2)c2ccc(N(C)C)cc2)c(OC)c1 (centres undefined) | inconclusive: 29.1 µM [rising, single point] | –
11 | COc1cccc(CNC(=O)CN(C)S(=O)(=O)c2ccc3[nH]c4c(c3c2)CCCC4)c1 | – | inactive: 6.18%
12 | CCC(C)OC(=O)C1=C(C)NC(=O)NC1c1ccc(F)cc1 (centres undefined) | inconclusive: 14.6 µM [cytotoxic, partial curve] | –
13 | O=C(CSc1ccc2c(c1)OCCO2)NC(=O)NC1CCCC1 | inconclusive: 25.9 µM [cytotoxic, single point] | –
14 | Cn1c2ccccc2n2c(=O)c(=O)n(CC(=O)c3ccc(Cl)cc3)nc12 | – | inactive: -0.772%
15 | O=C(CCN1C(=O)CSc2ccccc21)Nc1ccc(OC(F)(F)F)cc1 | inconclusive: 18.4 µM [cytotoxic, single point] | –
16 | CN(C)S(=O)(=O)N1CCN(CC(=O)Nc2cc(Cl)ccc2Cl)CC1 | active: 18.4 µM | –
17 | Cc1ccc2nc3sc(C(=O)NCc4ccco4)c(N)c3cc2c1 | – | inactive: 10.3%
18 | Cc1ccc(C2=CC(c3ccccc3F)n3c(nc4ccccc43)N2)cc1C (centres undefined) | – | inactive: -18.1%
19 | CCCOc1ccc(CSCCNC(=S)Nc2ccccc2)cc1 | inconclusive: 14.6 µM [cytotoxic, partial curve] | –
20 | CN=c1sc2c(n1C)C(=O)c1ccccc1C2=O | inconclusive: 29.1 µM [cytotoxic, single point] | –
21 | Cn1cnc([N+](=O)[O-])c1Sc1nc(N)nc2c1ncn2C1OC(CO)C(O)C1O (centres undefined) | active: 1.16 µM | –
22 | O=C(C[N+]12CCCc3cccc(c31)CCC2)c1ccccc1 | – | inactive: 5.69%
23 | C[C@@H]1CN([C@@H](C)CO)C(=O)CCCn2cc(nn2)CO[C@H]1CN(C)C(=O)Oc1ccccc1 | inconclusive: 29.1 µM [rising, single point] | –

Row | Compound | Potency | activity change, negative = cytotoxicity
24 | CC[C@]12c3[nH]c4ccc(Cl)cc4c3CCN1C(=O)[C@@H](CC(=O)NCCC1=CCCCC1)C[C@@H]2C(=O)N1CCN(C(=O)C2CC2)CC1 | – | inactive: -12.6%
25 | COc1ccc(CCNC(=O)CCN2C(=O)C(C)Oc3ccc(C)cc32)cc1OC (centres undefined) | active: 8.2 µM | –
26 | Cc1ccc(CSCC(=O)Nc2ccc(N3CCOCC3)cc2N2CCOCC2)cc1 | inconclusive: 16.4 µM [cytotoxic, partial curve, poor fit] | –
27 | COC(=O)C1=CN(c2cc(C)cc(C)c2)C=C(C(=O)OC)C1c1cccc(F)c1 | inconclusive: 9.2 µM [cytotoxic, partial curve, poor fit] | –
28 | OC(c1ccccc1)C(NCc1ccccc1)c1ccccc1 (centres undefined) | inconclusive: 25.9 µM [cytotoxic, partial curve, poor fit] | –
29 | COc1cccc(CNS(=O)(=O)c2cc(Br)ccc2Br)c1 | – | inactive: 2.76%
30 | COc1ccccc1C(C)NC(=O)CCNC(=O)c1ccc(Cl)cc1 (centres undefined) | – | inactive: 0%
31 | CN1CC[C@H](c2c(O)cc(O)c3c(=O)cc(-c4ccccc4Cl)oc23)[C@H](O)C1 | inconclusive: 0.291 µM [cytotoxic, full curve, poor fit] | –
32 | O=C1CCN2C=Nc3cccc4ccc1c2c34 | active: 11.6 µM | –
33 | Fc1cccc(Cc2c(-c3ccccc3)nc3c4ccccc4ccn23)c1 | inconclusive: 16.4 µM [cytotoxic, partial curve] | –
34 | Cc1ccc(S(=O)(=O)CC(=O)Nc2ccc(Cl)cn2)cc1 | inconclusive: 16.4 µM [cytotoxic, single point] | –
35 | CCCc1cc(=O)oc2cc(C)cc(OCC(=O)NCCCN3CCCC3=O)c12 | inconclusive: 0.0366 µM [cytotoxic, full curve] | –
36 | CCOC(=O)C1=C(CN2CCCCC2)NC(=O)NC1c1cc(C)ccc1C (centres undefined) | active: 10.3 µM | –
37 | O=C(c1ccc(Cn2c(=S)[nH]c3cc4c(cc3c2=O)OCO4)cc1)N1CCN(c2ccccc2)CC1 | – | inactive: -14.8%
38 | CC(C)NC(=O)C1(C)CSCC(=O)N1CCCN1CCOCC1 (centres undefined) | – | inactive: -6.63%
39 | COc1ccc2cc3cc(C(=O)NCCCN4CCc5ccccc5C4)sc3nc2c1 | inconclusive: 11.6 µM [cytotoxic, partial curve, poor fit] | –
40 | CC(=O)Nc1nc2c(s1)CCc1ccccc1-2 | inconclusive: 29.1 µM [rising, single point] | –
41 | O=c1c(-c2ccc(Cl)cc2)c(C(F)(F)F)oc2c(CN3CCCCC3)c(O)ccc12 | inconclusive: 20.6 µM [rising, single point] | –
42 | CN(Cc1ccc(N(C)C)cc1)C(=O)c1cc2ccccc2o1 | inconclusive: 29.1 µM [cytotoxic, single point] | –
43 | CC1(C(=O)NCc2ccccc2)CSCC(=O)N1CCCn1ccnc1 (centres undefined) | – | inactive: -1.64%
44 | CC(C)C(=O)Nc1ccc(S(=O)(=O)Nc2nccc(/C=C/c3ccccc3)n2)cc1 | inconclusive: 14.6 µM [rising, partial curve, poor fit] | –
45 | O=C(O)CSc1ncccc1C(=O)O | – | inactive: 0.964%
46 | CCc1ccc(N2C(=O)CSC23C(=O)N(Cc2ccc(C)cc2)c2ccccc23)cc1 (centres undefined) | active: 11.6 µM | –

An excerpt of these results, in CSV form.
Row,Compound,Potency,"activity change, negative = cytotoxicity"
31,CN1CC[C@H](c2c(O)cc(O)c3c(=O)cc(-c4ccccc4Cl)oc23)[C@H](O)C1,"inconclusive: 0.291 µM [cytotoxic, full curve, poor fit]",–
37,O=C(c1ccc(Cn2c(=S)[nH]c3cc4c(cc3c2=O)OCO4)cc1)N1CCN(c2ccccc2)CC1,–,inactive: -14.8%
44,CC(C)C(=O)Nc1ccc(S(=O)(=O)Nc2nccc(/C=C/c3ccccc3)n2)cc1,"inconclusive: 14.6 µM [rising, partial curve, poor fit]",–

(listing goes on)

Row | Compound | Potency | activity change, negative = cytotoxicity
47 | COc1cc(-c2cc(=O)c3c(C)cc(O)cc3o2)cc(OC)c1OC | active: 2.59 µM | –
48 | COc1ccc(OC)c(-c2cn(S(=O)(=O)c3ccccc3)nc2N)c1 | inconclusive: 17.8 µM [cytotoxic, partial curve, poor fit] | –
49 | COc1ccc(/C=N/NC(=O)c2cccc([N+](=O)[O-])c2)cc1OC(=O)c1ccc(C)cc1 | inconclusive: 29.1 µM [cytotoxic, single point] | –
50 | CC(=O)Nc1sc(C)c(C)c1C(=O)OCC(=O)Nc1ccccc1C(F)(F)F | inconclusive: 20.6 µM [cytotoxic, single point] | –
51 | COC(=O)c1cc(NCc2c(F)cccc2Cl)ccc1N1CCOCC1 | inconclusive: 23.1 µM [cytotoxic, single point] | –
52 | O=C(O)CN1C(=O)CC(Cc2ccccc2)C1=O (centres undefined) | inconclusive: 18.4 µM [rising, single point] | –
53 | Nc1ccc(N2CCCCC2)c2nonc12 | inconclusive: 29.1 µM [cytotoxic, single point] | –
54 | O=C(Nc1nccs1)c1cccnc1 | inconclusive: 32.6 µM [rising, single point] | –
55 | Cc1cccc(NC(=O)c2cc([N+](=O)[O-])ccc2N2CCN(C)CC2)c1 | inconclusive: 4.11 µM [cytotoxic, full curve, poor fit] | –
56 | COc1ccc(Cl)cc1C(=O)NNC(=S)NC1CCCC1 | inconclusive: 20.6 µM [cytotoxic, single point] | –
57 | COCCCNCCOCCOc1ccc(Cl)cc1C(C)(C)C | active: 18.4 µM | –
58 | Brc1ccc(CN2CCN(Cc3c[nH]c4ccccc34)CC2)cc1 | inconclusive: 20.6 µM [cytotoxic, single point] | –
59 | O=[N+]([O-])c1ccc(/C=N/NC(=S)Nc2ccc(Cl)cc2Cl)s1 | inconclusive: 2.31 µM [cytotoxic, full curve, poor fit] | –
60 | COc1ccc(Cn2cc(C(=O)c3ccc(C)cc3)c(=O)c3cc(OC)c(OC)cc32)cc1 | – | inactive: 19.4%
61 | CCn1c(SCC(=O)NCc2ccc3c(c2)OCO3)nc2c(c1=O)SCC2 | inconclusive: 18.4 µM [cytotoxic, single point] | –
62 | COC(=O)c1ccc(NC(=O)CC(=O)Nc2ccc(C(=O)OC)cc2)cc1 | – | inactive: 0.633%
63 | OCCNc1nc(C2CC2)nc2c1nnn2Cc1ccccc1Cl | active: 6.51 µM | –
64 | CCCCCCCCCC[n+]1ccc(/C=C/c2c(C)[nH]c3ccccc23)cc1 | inconclusive: 25.9 µM [cytotoxic, partial curve, poor fit] | –
65 | Cn1c(=O)c2c(nc(CN3CCN(Cc4ccccc4)CC3)n2Cc2ccc(Cl)cc2)n(C)c1=O | – | inactive: -8.67%
66 | Cc1ccc(CNC(=O)C2CCN(S(=O)(=O)c3cc(-c4noc(C)n4)ccc3C)CC2)cc1 | inconclusive: 23.1 µM [cytotoxic, single point] | –
67 | CCOc1ccc(-c2nnc3ccc(SCC(=O)NCc4ccco4)nn23)cc1 | active: 16.4 µM | –
68 | CCOC(=O)c1c(C)[nH]c(C(=O)COC(=O)CCNS(=O)(=O)c2ccc(NC(C)=O)cc2)c1C | inconclusive: 14.6 µM [cytotoxic, partial curve, poor fit] | –
69 | CCC(C)C(NC(=O)CCC(=O)OCC(=O)[C@@]1(O)CCC2[C@@H]3CCC4=CC(=O)C=C[C@]4(C)C3[C@@H](O)C[C@@]21C)C(=O)O (some centres undefined) | – | inactive: 43.6%
